PMC4900804, “Allosteric modulation in monomers and oligomers of a G protein-coupled receptor” (eLife, 2016)
These are yes or no findings as the source states them, for the method shown. For part of these data: Binding seen in cells or lysates may run through a third protein. Some results given as binding are weak or reduced against the parent protein; the word gives no strength.

Protein sequences, listed by entry. Tags and fused reporters are not part of them. Lines headed by an entry give the natural chain unless they say otherwise; changes in a name come on top. Chains listed by the source or under a name are the forms on record and can include a tag or linker.
UniProt P08172: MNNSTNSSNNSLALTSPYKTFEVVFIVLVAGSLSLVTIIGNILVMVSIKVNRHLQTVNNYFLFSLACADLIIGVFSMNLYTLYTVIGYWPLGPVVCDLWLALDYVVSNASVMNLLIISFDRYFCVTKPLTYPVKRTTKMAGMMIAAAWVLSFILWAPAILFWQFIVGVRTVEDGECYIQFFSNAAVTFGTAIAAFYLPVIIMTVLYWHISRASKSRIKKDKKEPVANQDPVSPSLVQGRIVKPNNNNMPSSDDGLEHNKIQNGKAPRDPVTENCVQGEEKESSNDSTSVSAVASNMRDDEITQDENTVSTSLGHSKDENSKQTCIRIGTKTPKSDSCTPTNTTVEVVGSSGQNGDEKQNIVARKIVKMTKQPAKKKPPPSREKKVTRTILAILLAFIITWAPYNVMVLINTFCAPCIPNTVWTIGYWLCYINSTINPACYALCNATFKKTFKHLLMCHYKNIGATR
His6-M2-ECL2+ve (P08172, form named): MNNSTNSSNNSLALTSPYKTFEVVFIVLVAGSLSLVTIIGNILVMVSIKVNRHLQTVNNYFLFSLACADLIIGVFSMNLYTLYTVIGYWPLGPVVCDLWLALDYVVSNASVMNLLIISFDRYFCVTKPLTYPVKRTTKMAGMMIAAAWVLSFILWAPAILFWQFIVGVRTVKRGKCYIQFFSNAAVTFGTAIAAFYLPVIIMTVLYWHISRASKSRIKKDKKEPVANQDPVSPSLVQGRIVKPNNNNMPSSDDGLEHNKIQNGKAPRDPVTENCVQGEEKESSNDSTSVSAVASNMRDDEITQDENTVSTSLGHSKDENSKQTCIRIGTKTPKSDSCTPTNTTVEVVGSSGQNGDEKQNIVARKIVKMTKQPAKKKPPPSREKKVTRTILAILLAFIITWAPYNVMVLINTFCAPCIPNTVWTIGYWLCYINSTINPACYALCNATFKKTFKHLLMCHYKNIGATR

How the values were obtained:
FLAG-M2(D103A) (human) = FLAG-M2(D103A) (human) (UniProt P08172); experiment: sequential affinity co-purification (anti-FLAG resin and Ni2+-NTA); digitonin–cholate extract of co-transfected CHO cells passed successively over immobilised anti-FLAG antibody and Ni2+-NTA; eluted with FLAG peptide (100 μg/mL) and imidazole (150 mM); purified heteromer detected by binding of [3H]NMS
[1] = target: Human M2 muscarinic receptor bearing the c-Myc or FLAG epitope at the N-terminus (human) (UniProt P08172); experiment: co-IP; extract (digitonin–cholate) of Sf9 cells co-expressing FLAG- and c-Myc-tagged receptor; agarose-conjugated anti-FLAG antibody, overnight at 4°C; blot with anti-c-Myc antibody
[2] = target: Human M2 muscarinic receptor bearing the c-Myc or FLAG epitope at the N-terminus (human) (UniProt P08172); experiment: condition: only after purification on DEAE-Sepharose, ABT-Sepharose and hydroxyapatite; cross-linking; purified M2 receptor, BS3 2 mM, 30 min at 24°C; electrophoresis, western blot with anti-M2 antibody, densitometry; both purified

| Substance | binding (FLAG-M2(D103A) (human)) | binding [1] | binding [2] |
| --- | --- | --- | --- |
| His6-M2-ECL2+ve (from UniProt P08172 1-466) (receptor) | binds |  |  |
| Human M2 muscarinic receptor bearing the c-Myc or FLAG epitope at the N-terminus (from UniProt P08172 1-466) |  | binds | no binding |
